The source of these data is patent US20240350678A1, “SYSTEMS AND METHODS FOR GENERATION OF HYPERPOLARIZED MATERIALS” (NVISION IMAGING TECHNOLOGIES GMBH, priority 2021, published 2024).

Each structure is given as a SMILES string.

The nature of the series: Parahydrogen hydrogenation (PHIP-SAH), polarization transfer, hyperpolarized 13C NMR. Conditions: 10 seconds.

Consider `CC(=O)C(=O)SCC#Cc1ccccc1` [S-(3-phenylprop-2-yn-1-yl) 2-oxopropanethioate], for which the “polarization of the thiopyruvate-C-1” value (after parahydrogen hydrogenation in acetone-d6, starting concentration 60 mM, 6 mM Rh(dppb)(COD)BF4, 50° C./10 bar, 13C signal at 161.02 ppm) is given as 4.3%. Further, for the setting “after parahydrogen hydrogenation in acetone-d6, starting concentration 60 mM, 6 mM Rh(dppb)(COD)BF4, 50° C./10 bar, 13C signal at 190.80 ppm”, the “polarization of thiopyruvate-C-2” value was 4.0%.

As to `CC(=O)C(=O)SCC#CC(=O)OC(C)(C)C` [tert-butyl 4-((2-oxopropanoyl)thio)but-2-ynoate], the “polarization of the ester group in the side-arm” value (after parahydrogen hydrogenation in acetone-d6, starting concentration 110 mM, 3 mM Rh(dppb)(COD)BF4, 50° C./10 bar, 13C signal at 165.48 ppm) worked out at 10.7%. For the same molecule, the “polarization of the thiopyruvate-C-1” value (after parahydrogen hydrogenation in acetone-d6, starting concentration 110 mM, 3 mM Rh(dppb)(COD)BF4, 50° C./10 bar, 13C signal at 194.69 ppm) stood at 7.7%.
